Source: article PMC3608633
No constants are given. Whether binding was seen depends on the method and setting. Some binding calls cover weakened binding; strength is not graded here. Where a sequence is shown, tags or fusion partners need not be part of it.

Target: T1, recombinant mouse ALCAM protein (mouse) (UniProt Q61490)
T1 sequence: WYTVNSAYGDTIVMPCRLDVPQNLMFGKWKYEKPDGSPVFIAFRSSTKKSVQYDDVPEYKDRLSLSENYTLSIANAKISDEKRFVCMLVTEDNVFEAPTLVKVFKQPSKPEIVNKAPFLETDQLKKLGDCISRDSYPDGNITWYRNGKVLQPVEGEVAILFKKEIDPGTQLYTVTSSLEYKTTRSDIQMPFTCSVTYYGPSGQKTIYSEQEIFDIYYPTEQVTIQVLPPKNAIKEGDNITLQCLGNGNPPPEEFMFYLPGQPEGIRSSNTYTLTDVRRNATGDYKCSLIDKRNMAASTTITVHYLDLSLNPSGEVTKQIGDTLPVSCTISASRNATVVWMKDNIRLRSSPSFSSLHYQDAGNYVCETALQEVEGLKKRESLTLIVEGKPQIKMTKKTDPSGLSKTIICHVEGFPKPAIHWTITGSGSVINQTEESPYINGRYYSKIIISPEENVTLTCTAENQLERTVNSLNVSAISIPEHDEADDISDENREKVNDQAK
Assay: ELISA; recombinant mouse ALCAM adsorbed to a 96-well plate; CD62P-Fc added in solution; detected with AP-conjugated antibodies to human Fc fragment, absorbance at 405 nm; BSA as control; both purified

B1: CD62P-Fc fusion protein (Fc fusion, UniProt Q01102 42-709)
chain: WTYNYSTKAYSWNNSRVFCRRHFTDLVAIQNKNEIAHLNDVIPFFNSYYWIGIRKINNKWTWVGTNKTLTEEAENWADNEPNNKKNNQDCVEIYIKSNSAPGKWNDEPCFKRKRALCYTASCQDMSCSNQGECIETIGSYTCSCYPGFYGPECEYVKECGKVNIPQHVLMNCSHPLGEFSFNSQCTFSCAEGYELDGPGELQCLASGIWTNNPPKCDAVQCQSLEAPPHGTMACMHPIAAFAYDSSCKFECQPGYRARGSNTLHCTGSGQWSEPLPTCEAIACEPPEIPIHGSMDCVPSTGTFGYNSSCTFLCAEGFVLKGNDAIQCADSGQWTAPAPFCEALQCPEFPVPSKAQVNCSDPFGTLTYQSVCSFSCDEGSLLVGASVIRCLATGHWNGAPPECQAVSCAPMLSPENGSMTCVQPLGNSTYKSTCQFMCDEGFYLSGPERLDCSPSGHWTGTPPTCEAIKCPGIFAPEQGNLDCSHVHGEFGVGSICHFSCNEDFELLGSENVECTVSGRWSAPPPTCKGITSLPAPAVRCPALTTPGQGTMSCQHHLGSFGPNTTCYFGCKTGFTLRGANSLRCRASGQWTAVTPMCRAVKCSELHMDTAVAMNCSNPWGNFSYGSTCTFQCPEGQSLNGSVRATCREDGHWSDAMPTCQAGTLTIQEA
- binding: binds
